No constants are given. Whether binding was seen depends on the method and setting. In cells and extracts the contact can be indirect. A yes stands for co-enrichment or nearness to the bait. Other partners may have been found.
Molecular target: T1, SLC39A1 (human) (UniProt Q9NY26)
T1 sequence: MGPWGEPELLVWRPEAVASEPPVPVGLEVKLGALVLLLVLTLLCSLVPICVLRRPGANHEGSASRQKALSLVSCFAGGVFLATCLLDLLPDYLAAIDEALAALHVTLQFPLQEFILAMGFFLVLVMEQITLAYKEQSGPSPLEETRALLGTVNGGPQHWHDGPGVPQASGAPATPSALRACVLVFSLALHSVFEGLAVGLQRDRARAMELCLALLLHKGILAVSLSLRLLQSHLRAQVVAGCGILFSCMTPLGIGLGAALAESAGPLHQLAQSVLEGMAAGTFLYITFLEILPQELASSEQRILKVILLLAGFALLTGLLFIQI
Test: affinity purification with mass spectrometry; SLC39A1 pulldown in HEK293-SLC39A1-WTOE cells; AP-MS data of the RESOLUTE interaction proteomics (Frommelt et al, 2025)

B1: SLC30A9 (protein, UniProt Q6PML9 68-568)
chain: STNVQKEGQGSQTLRVEKVPSFETAEGIGTELKAPLKQEPLQVRVKAVLKKREYGSKYTQNNFITGVRAINEFCLKSSDLEQLRKIRRRSPHEDTESFTVYLRSDVEAKSLEVWGSPEALAREKKLRKEAEIEYRERLFRNQKILREYRDFLGNTKPRSRTASVFFKGPGKVVMVAICINGLNCFFKFLAWIYTGSASMFSEAIHSLSDTCNQGLLALGISKSVQTPDPSHPYGFSNMRYISSLISGVGIFMMGAGLSWYHGVMGLLHPQPIESLLWAYCILAGSLVSEGATLLVAVNELRRNARAKGMSFYKYVMESRDPSTNVILLEDTAAVLGVIIAATCMGLTSITGNPLYDSLGSLGVGTLLGMVSAFLIYTNTEALLGRSIQPEQVQRLTELLENDPSVRAIHDVKATDLGLGKVRFKAEVDFDGRVVTRSYLEKQDFDQMLQEIQEVKTPEELETFMLKHGENIIDTLGAEVDRLEKELKKRNPEVRHVDLEIL
binding: binds
